This passage reports binding results from article PMC11031135, “Chemo-enzymatic synthesis of tetrasaccharide linker peptides to study the divergent step in glycosaminoglycan biosynthesis” (Glycobiology, 2024).

These are yes or no findings as the source states them, for the method shown.

This assay deals with human XylT-I (peptide-O-xylosyltransferase 1), residues 232-959 (human) (UniProt Q86Y38). As to the kind of experiment: condition: final concentration between 50 nM and 125 nM; mass photometry; Refeyn OneMP; final protein concentration between 50 nM and 125 nM; XylT1 and SUMO-β3GalT6 in Tris buffer A (50 mM Tris pH 7.4, 250 mM NaCl) with 5% glycerol, β4GalT7 in S200 buffer (25 mM MES pH 6.5, 200 mM NaCl, 5% glycerol), GlcAT-1 in HEPES buffer; duplicates; both purified.

B1: human XylT-I (peptide-O-xylosyltransferase 1), residues 232-959 (enzyme, UniProt Q86Y38 232-959)
chain: DVSRPPHARKTGGSSPETKYDQPPKCDISGKEAISALSRAKSKHCRQEIGETYCRHKLGLLMPEKVTRFCPLEGKANKNVQWDEDSVEYMPANPVRIAFVLVVHGRASRQLQRMFKAIYHKDHFYYIHVDKRSNYLHRQVLQVSRQYSNVRVTPWRMATIWGGASLLSTYLQSMRDLLEMTDWPWDFFINLSAADYPIRTNDQLVAFLSRYRDMNFLKSHGRDNARFIRKQGLDRLFLECDAHMWRLGDRRIPEGIAVDGGSDWFLLNRRFVEYVTFSTDDLVTKMKQFYSYTLLPAESFFHTVLENSPHCDTMVDNNLRITNWNRKLGCKCQYKHIVDWCGCSPNDFKPQDFHRFQQTARPTFFARKFEAVVNQEIIGQLDYYLYGNYPAGTPGLRSYWENVYDEPDGIHSLSDVTLTLYHSFARLGLRRAETSLHTDGENSCRYYPMGHPASVHLYFLADRFQGFLIKHHATNLAVSKLETLETWVMPKKVFKIASPPSDFGRLQFSEVGTDWDAKERLFRNFGGLLGPMDEPVGMQKWGKGPNVTVTVIWVDPVNVIAATYDILIESTAEFTHYKPPLNLPLRPGVWTVKILHHWVPVAETKFLVAPLTFSNRQPIKPEEALKLHNGPLRNAYMEQSFQSLNPVLSLPINPAQVEQARRNAASTGTALEGWLDSLVGGMWTAMDICATGPTACPVMQTCSQTAWSSFSPDPKSELGAVKPDGRLR
In the case of B1, the binding entry is given as “no binding”.
